In PubChem BioAssay AID493014 (National Center for Advancing Translational Sciences (NCATS), 2011):
The other results are listed elsewhere or left out. Shown are side measurements of this screen, not its main read-out; they come without a call. Compounds called inactive in the main read-out are mostly missing here. Potencies come from curve fits of mixed quality, noted in brackets.

Test: qHTS Assay to Find Inhibitors of Chronic Active B-Cell Receptor Signaling
Conditions: ABC-DLBCL IkBa-CBG/CBR reporter, luminescence ratio (green luciferase fused to IkBa over red control in TMD8 lymphoma cells), 4 h
Summary of the method: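 Concentration-response series (up to 46 uM) were applied to TMD8 dual-reporter cells for 4 h at 37C with doxycycline. Green/red ratio, after filter-overlap correction, defined %Activity; red signal alone was normalised to basal cells and zero luminescence.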

[1] = measured here: CBR red luminescence, cell number
[2] = measured here: IkBa-CBG green luminescence

Compound	AC50 [1]	AC50 [2]
CCOC(=O)c1c(CC(C)C)csc1NC(=O)CCl	20.6 µM [falling, single point]	–
Cc1ccc(OCc2nnc(SC(C)C(=O)O)n2Cc2ccccc2)cc1 (stereo unspecified)	0.112 µM [falling, full curve, poor fit]	–
CN(C)CCCN(C(=O)c1ccc2c(c1)CCCC2)c1nc2ccc(Cl)cc2s1	13 µM [falling, partial curve]	–
COc1ccc(Nc2nc(-c3ccc(OC)cc3)cs2)cc1	0.562 µM [rising, full curve, poor fit]	–
COc1cc(C(=O)N/N=C/c2sccc2C)cc(OC)c1OC	3.98 µM [rising, full curve, poor fit]	7.08 µM [falling, partial curve]
CCCCN(C(=O)c1ccc(N2C(=O)c3ccccc3C2=O)cc1)c1c(N)n(CC(C)C)c(=O)[nH]c1=O	3.26 µM [rising, single point]	–
NC(=O)CC(NC(=O)Cc1ccc(Cl)cc1)c1ccc(NC2CCN(Cc3ccccc3)CC2)c([N+](=O)[O-])c1 (stereo unspecified)	10 µM [falling, partial curve, poor fit]	–
Cc1ccn(CC(=O)N2CCCC(C(=O)c3cccc4ccccc34)C2)n1 (stereo unspecified)	14.1 µM [rising, single point]	–
C/C(CCc1ccccc1)=N\NC(=O)c1ccccc1	11.6 µM [falling, partial curve]	–
O=C1C2C3CC(C2C(=O)N1c1cccc(Cl)c1)[C@H](O)C3O (stereo partly specified)	11.2 µM [rising, partial curve, poor fit]	–
O=C(CCCCl)NC(=S)Nc1ccc(CN2CCOCC2)cc1	7.08 µM [falling, partial curve]	–
CCc1c(C)nc2ncnn2c1N1CCCC(C(=O)Nc2cc(F)ccc2C)C1 (stereo unspecified)	4.61 µM [falling, partial curve, poor fit]	–
CCC1CCc2c(sc(NC(=O)c3ccco3)c2C(N)=O)C1 (stereo unspecified)	–	9.2 µM [rising, partial curve, poor fit]
O=C(O)C1CCN(C(=O)CSc2nc3ccccc3s2)CC1	2.82 µM [falling, full curve]	–
CC(=O)c1ccc(S(=O)(=O)NC(=O)NC2CCCCC2)cc1	32.6 µM [falling, single point]	–
CC(=O)c1ccccc1Oc1ncnc(N)c1[N+](=O)[O-]	12.6 µM [rising, single point]	–
CCCc1cc(=O)n2[nH]c(NCc3cccs3)nc2n1	16.4 µM [falling, partial curve, poor fit]	–
O=C(N/N=C/c1ccc(F)cc1)c1ccc(OCc2ccccc2)cc1	12.6 µM [rising, single point]	–
CCc1ccccc1NC(=O)CCS(=O)(=O)c1ccc(OC)cc1	0.708 µM [rising, full curve, poor fit]	–
O=C(Cc1ccc(Cl)cc1)Nc1ccc(SC(F)F)cc1	0.92 µM [rising, full curve, poor fit]	–
CCOC(=O)c1[nH]c(C)c(C(=O)N2CCN(c3cccc(Cl)c3)CC2)c1C	4.61 µM [falling, single point]	–

Compound	AC50 [1]	AC50 [2]
Cc1cc(NC(=O)c2cc(-c3ccccc3Cl)nc3ccccc23)no1	10 µM [falling, partial curve, poor fit]	–
CC(C)Cn1c(N)c(C(=O)COC(=O)c2cccc(Cl)c2)c(=O)n(C)c1=O	3.55 µM [rising, partial curve, poor fit]	–
CC1=NN(c2ccccc2)C(=O)C1N=Nc1ccc(S(N)(=O)=O)cc1 (stereo unspecified)	10 µM [falling, partial curve, poor fit]	–
COc1ccccc1/C=C/C(=O)OCC(=O)Nc1ccc2c(c1)OCO2	0.146 µM [falling, partial curve, poor fit]	–
O=c1cc(N=Nc2ccc(Cl)cc2)[nH]c(=O)[nH]1	2.24 µM [falling, full curve, poor fit]	3.16 µM [rising, full curve, poor fit]
O=C(N/N=C/c1c[nH]c2ccccc12)c1ccn(Cc2ccc(Cl)cc2)n1	11.2 µM [falling, partial curve]	–
CC(C)Sc1ccc(C(=O)Nc2ccc(F)cc2F)cn1	5.01 µM [falling, partial curve, poor fit]	–
CC(C)(C)OC(=O)N1CCN(C(=O)Cn2cc(CCO)nn2)CC1	35.5 µM [rising, partial curve, poor fit]	–
Cc1ccc(-c2cnc(-c3ccncc3)o2)cc1	2.59 µM [rising, full curve, poor fit]	–
O=C(Nc1cccc(S(=O)(=O)C(F)F)c1)c1ccc(Cl)c(S(=O)(=O)N2CCOCC2)c1	29.1 µM [falling, single point]	–
O=C(Nc1ccccc1)c1ccc2c(c1)OCCCO2	3.98 µM [falling, full curve]	–
Cc1cc(C)cc(N(C(=O)c2csnn2)C(C(=O)NC2CCCCC2)c2cccnc2)c1 (stereo unspecified)	6.31 µM [rising, single point]	–
O=C(NN=C1CCCCCCCCCCC1)c1ccccc1F	16.4 µM [falling, partial curve]	–
O=C(Cc1ccccc1)NNC(=O)Nc1ccc(Cl)c(Cl)c1	20.6 µM [falling, single point]	–
C=CCC[C@@H](Cc1ccc(F)cc1)C(=O)OC[C@@H](Cc1ccccc1)NC(=O)[C@@H](CC=C)CC(=O)N[C@@H](CO)Cc1ccccc1	0.103 µM [rising, full curve, poor fit]	–
CN(CCO)CC(O)Cn1cnc2c1c(=O)n(C)c(=O)n2C (stereo unspecified) (tested in a mixture with another compound)	29.1 µM [rising, single point]	–
CNC(=S)N1CCN(c2nc3ccccc3s2)CC1	31.6 µM [falling, single point]	–
CSC1=NCCN1S(=O)(=O)c1ccc(NC(C)=O)cc1	6.31 µM [rising, single point]	–
CN(C(=O)COC(=O)CSCc1cccc(Cl)c1)c1c(N)n(Cc2ccccc2)c(=O)[nH]c1=O	1.16 µM [rising, full curve]	–
Cc1[nH][nH]c(=O)c1C(c1ccc(O)c([N+](=O)[O-])c1)c1c(C)[nH][nH]c1=O	9.2 µM [falling, partial curve]	23.1 µM [rising, partial curve, poor fit]
CCc1ccc(-c2cc(C(=O)N/N=C/c3c[nH]c4ccccc34)[nH]n2)cc1	22.4 µM [falling, single point]	–

Compound	AC50 [1]	AC50 [2]
COc1ccc(C2C(C#N)=C(C)NC3=C2C(=O)CC(C)(C)C3)c(OC)c1 (stereo unspecified)	5.17 µM [rising, full curve, poor fit]	–
CCOC(=O)c1cc(-c2ccccc2C)n(Cc2cc(C)no2)n1	8.2 µM [falling, partial curve, poor fit]	–
CCCCOc1ccc(CSc2ncn[nH]2)cc1	11.2 µM [falling, partial curve]	–
N/C(=N\OC(=O)c1ccco1)c1ccccc1	2.91 µM [rising, partial curve]	–
C/C(=N\N=c1/scc(C)n1Cc1ccco1)c1cccc([N+](=O)[O-])c1	4.61 µM [rising, partial curve]	–
Cc1ccc(OCc2nc(-c3ccccc3)no2)cc1	35.5 µM [falling, single point]	–
CCOc1cc(C(=O)OCc2ccc(OC)cc2)ccc1OCC(=O)N1CCOCC1	6.51 µM [falling, single point]	7.31 µM [rising, partial curve, poor fit]
Fc1ccccc1CN1CCCN(C(=S)Nc2cccc(Cl)c2)C1	11.2 µM [falling, partial curve]	–
CN(C)C(=O)c1ccc(NC(=O)COC(=O)/C=C/c2cccs2)cc1	1.3 µM [falling, partial curve, poor fit]	–
Cc1cc(C)cc(NS(=O)(=O)c2ccc(NC(=S)Nc3ccccc3)cc2)c1	2.31 µM [falling, partial curve, poor fit]	–
O=C(/C=C/c1cccnc1)c1ccc(O)cc1	17.8 µM [falling, partial curve, poor fit]	–
CCOC(=O)c1cc(-c2ccccc2)n(CCC(=O)Nc2ccccc2CC)c1C	2.24 µM [rising, partial curve, poor fit]	–
N#Cc1ccc(C(=O)NC2CCCCCCC2)cc1	12.6 µM [falling, partial curve, poor fit]	–
CCC(=O)N1CCCc2cc(S(=O)(=O)NCc3cccs3)ccc21	1.64 µM [rising, full curve, poor fit]	–
N/C(=N\OC(=O)CCCN1C(=O)c2ccccc2C1=O)c1ccccn1	1.26 µM [rising, partial curve, poor fit]	–
CC(C)CNC(=O)CC(=O)N/N=C/c1ccc(Br)cc1	2.51 µM [falling, full curve, poor fit]	–
O=C(Nc1ccc(Cl)cn1)c1cccc(S(=O)(=O)N2CCCC2)c1	11.2 µM [falling, partial curve, poor fit]	–
CCCc1nc2cc(CC(=O)OC)ccc2o1	20 µM [rising, partial curve, poor fit]	–
COC(=O)c1nn(-c2cccc(C(F)(F)F)c2)ccc1=O	35.5 µM [rising, single point]	–
COc1cc(CO)ccc1OCc1ccc(Cl)nc1	11.2 µM [falling, single point]	–

One compound at a time (already shown):
`Cc1cc(NC(=O)c2cc(-c3ccccc3Cl)nc3ccccc23)no1` is listed as AC50 [1]: 10 µM [falling, partial curve, poor fit]
`CN(C)C(=O)c1ccc(NC(=O)COC(=O)/C=C/c2cccs2)cc1` is listed as AC50 [1]: 1.3 µM [falling, partial curve, poor fit]
`Cc1[nH][nH]c(=O)c1C(c1ccc(O)c([N+](=O)[O-])c1)c1c(C)[nH][nH]c1=O` is listed as AC50 [1]: 9.2 µM [falling, partial curve]; AC50 [2]: 23.1 µM [rising, partial curve, poor fit]
